# Measurements reported in patent US8129368B2, “5,6-dihydro-1H-pyridin-2-one compounds” (priority 2008, dated 2012).
# Test system: HCV Huh-luc/neo-ET replicon cells
# Assay: Luciferase-Based HCV Replicon Assay (EC50 (1b))
# Assay type: cell-based
# Conditions: Hepatitis C virus, 72 h, read-out: EC50(1b) concentration
# Procedure: Luciferase-Based HCV Replicon Assay Protocol (EC50 (1b))
# The cell culture component of the assay is performed essentially as described by Bartenschlager et al., Hepatology 2002, 35, 694-703, wherein exponentially growing HCV Huh-luc/neo-ET replicon cells were seeded at 6×10^3 cells/well in 96 well assay plate. 24 hours later the cells were treated with various concentrations of compound or combination of compounds in triplicate using both fixed ratios and checkerboard matrices of test agents and cultured for 72 hours. The luciferase activity in the wells was determined using Bright-Glo reagent (Promega, Madison, Wis.) with a luminometer (Wallac 1420 Multilabel HTS Counter Victor 2). The background control was replicon cells treated with 100 nM BILN-2061, an inhibitor of the HCV protease. % Inhibition was determined for each compound concentration in relation to the negative (no compound) control to calculate the EC50(1b).
smiles,measurement,value
"Cc1cc(CN2C(=O)C(C3=Nc4ccc(NS(C)(=O)=O)cc4S(=O)(=O)N3)=C(O)[C@@H]3[C@@H]4CC[C@@H](C4)[C@@H]32)ccc1F [Example 19, N-{3-[(1S,2S,7R,8R)-3-(4-Fluoro-3-methyl-benzyl)-6-hydroxy-4-oxo-3-aza-tricyclo[6.2.1.0^2,7]undec-5-en-5-yl]-1,1-dioxo-1,2-dihydro-1λ^6-benzo[1,2,4]thiadiazin-7-yl}-methanesulfonamide]",EC50,< 25 nM
